Measured values taken from the supplement of paper PMC6411743.
± gives the standard deviation of the averaged measurements. The entries are a selection whose mix differs from that of the whole data set.

Amino acid sequences for entries named in this document (tags omitted). A change or cut given only in a name is not applied to a line headed by its entry.
UniProt Q5ST30: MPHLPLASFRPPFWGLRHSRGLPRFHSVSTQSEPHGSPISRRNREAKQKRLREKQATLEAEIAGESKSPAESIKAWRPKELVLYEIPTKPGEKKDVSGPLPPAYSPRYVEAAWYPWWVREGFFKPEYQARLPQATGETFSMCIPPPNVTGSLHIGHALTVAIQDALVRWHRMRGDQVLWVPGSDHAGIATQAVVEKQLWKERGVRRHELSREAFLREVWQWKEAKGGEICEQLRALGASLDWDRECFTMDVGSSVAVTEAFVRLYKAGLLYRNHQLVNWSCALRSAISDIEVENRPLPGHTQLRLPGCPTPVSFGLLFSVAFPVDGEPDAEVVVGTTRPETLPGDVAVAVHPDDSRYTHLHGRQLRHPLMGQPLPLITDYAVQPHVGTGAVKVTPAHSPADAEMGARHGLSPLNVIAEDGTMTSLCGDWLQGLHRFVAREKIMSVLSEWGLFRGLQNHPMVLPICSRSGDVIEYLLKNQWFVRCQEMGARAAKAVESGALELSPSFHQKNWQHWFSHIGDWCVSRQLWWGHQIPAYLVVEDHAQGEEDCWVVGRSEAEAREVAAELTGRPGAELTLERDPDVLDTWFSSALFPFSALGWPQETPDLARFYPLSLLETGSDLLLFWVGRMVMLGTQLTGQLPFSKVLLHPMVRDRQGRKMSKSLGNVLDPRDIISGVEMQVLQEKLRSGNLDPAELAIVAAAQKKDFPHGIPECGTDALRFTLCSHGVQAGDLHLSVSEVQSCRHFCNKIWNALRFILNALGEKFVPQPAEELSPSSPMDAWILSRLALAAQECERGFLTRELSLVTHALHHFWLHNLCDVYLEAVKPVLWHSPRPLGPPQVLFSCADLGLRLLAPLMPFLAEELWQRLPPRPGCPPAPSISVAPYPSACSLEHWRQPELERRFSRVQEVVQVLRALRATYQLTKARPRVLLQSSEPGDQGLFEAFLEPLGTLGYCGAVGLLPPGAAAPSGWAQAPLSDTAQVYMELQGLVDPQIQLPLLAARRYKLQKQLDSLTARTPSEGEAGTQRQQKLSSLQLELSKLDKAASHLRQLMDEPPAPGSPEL
UniProt Q0VDG4: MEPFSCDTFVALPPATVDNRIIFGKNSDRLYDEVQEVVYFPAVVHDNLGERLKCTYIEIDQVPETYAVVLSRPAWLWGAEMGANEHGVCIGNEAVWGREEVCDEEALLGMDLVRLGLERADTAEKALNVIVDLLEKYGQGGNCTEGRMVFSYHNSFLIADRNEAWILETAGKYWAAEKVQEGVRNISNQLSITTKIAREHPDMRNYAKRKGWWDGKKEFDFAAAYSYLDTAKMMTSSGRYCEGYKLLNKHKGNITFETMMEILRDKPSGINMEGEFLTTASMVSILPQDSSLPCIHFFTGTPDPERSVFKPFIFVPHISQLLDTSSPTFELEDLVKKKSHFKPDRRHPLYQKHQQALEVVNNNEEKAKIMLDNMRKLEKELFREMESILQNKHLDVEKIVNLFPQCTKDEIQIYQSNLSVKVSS
UniProt Q6IBW4: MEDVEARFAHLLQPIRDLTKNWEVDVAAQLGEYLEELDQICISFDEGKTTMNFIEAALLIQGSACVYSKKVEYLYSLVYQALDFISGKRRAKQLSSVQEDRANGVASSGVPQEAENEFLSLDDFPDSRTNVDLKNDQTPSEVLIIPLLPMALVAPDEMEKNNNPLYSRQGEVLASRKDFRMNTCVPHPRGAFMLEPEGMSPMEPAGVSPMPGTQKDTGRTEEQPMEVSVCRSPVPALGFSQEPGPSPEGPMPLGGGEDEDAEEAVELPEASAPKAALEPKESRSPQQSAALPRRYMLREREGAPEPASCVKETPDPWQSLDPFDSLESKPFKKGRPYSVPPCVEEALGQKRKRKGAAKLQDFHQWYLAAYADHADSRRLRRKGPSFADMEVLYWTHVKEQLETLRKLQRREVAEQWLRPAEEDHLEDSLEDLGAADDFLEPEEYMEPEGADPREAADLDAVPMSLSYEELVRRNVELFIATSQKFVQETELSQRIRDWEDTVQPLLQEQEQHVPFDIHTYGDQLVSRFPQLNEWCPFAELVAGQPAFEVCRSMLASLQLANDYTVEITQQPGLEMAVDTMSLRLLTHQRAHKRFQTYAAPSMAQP
UniProt Q8TDR2: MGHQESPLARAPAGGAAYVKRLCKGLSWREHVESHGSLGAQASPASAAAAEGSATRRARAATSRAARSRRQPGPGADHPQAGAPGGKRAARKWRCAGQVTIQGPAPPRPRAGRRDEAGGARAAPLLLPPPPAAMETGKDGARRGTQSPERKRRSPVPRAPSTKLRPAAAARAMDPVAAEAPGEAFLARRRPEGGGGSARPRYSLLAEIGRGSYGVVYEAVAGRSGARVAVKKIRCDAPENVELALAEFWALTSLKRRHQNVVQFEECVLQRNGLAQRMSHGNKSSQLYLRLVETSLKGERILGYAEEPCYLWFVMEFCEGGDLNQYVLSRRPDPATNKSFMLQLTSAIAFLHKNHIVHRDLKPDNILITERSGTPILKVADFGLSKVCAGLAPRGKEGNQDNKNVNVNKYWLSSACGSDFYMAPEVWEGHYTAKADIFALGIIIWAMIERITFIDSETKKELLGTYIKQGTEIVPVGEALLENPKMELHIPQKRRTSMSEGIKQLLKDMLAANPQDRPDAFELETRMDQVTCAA
UniProt O00571: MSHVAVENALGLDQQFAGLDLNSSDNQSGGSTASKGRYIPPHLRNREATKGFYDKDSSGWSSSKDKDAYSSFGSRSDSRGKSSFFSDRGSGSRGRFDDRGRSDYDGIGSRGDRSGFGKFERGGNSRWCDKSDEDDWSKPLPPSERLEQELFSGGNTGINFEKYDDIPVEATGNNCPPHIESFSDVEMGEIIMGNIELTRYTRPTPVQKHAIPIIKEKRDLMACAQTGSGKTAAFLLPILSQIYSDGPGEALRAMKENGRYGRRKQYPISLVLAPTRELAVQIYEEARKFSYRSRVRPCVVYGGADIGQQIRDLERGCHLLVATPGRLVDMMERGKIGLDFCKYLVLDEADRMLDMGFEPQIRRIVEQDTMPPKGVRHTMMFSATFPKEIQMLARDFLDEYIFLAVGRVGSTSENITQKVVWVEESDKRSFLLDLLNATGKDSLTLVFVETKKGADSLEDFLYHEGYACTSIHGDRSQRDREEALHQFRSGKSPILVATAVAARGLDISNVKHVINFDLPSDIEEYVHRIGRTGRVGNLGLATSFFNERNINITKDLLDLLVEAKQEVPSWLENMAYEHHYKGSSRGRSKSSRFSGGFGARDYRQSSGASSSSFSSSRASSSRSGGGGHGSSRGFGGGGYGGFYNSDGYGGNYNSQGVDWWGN

Compound: Nc1ncnc2c1ncn2[C@@H]1O[C@H](COP(=O)(O)OP(=O)(O)OP(=O)(O)O)[C@@H](O)[C@H]1O [adenosine triphosphate]
Test: NP40-soluble protein abundance relative to vehicle (solubility fold change) (ratio); higher = more soluble protein in presence of ATP
In short: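 In three independent experiments, Jurkat crude lysate made by Dounce homogenisation was treated for 10 min at room temperature and then 3 min at 37 °C with eight concentrations ranging from 0.1 to 10 mM. It was then solubilised with 0.8% NP40 plus benzonase for 60 min at 4 °C and ultracentrifuged. The supernatant was TMT-labelled for LC-MS/MS, and each value is the fold change against the detergent-processed vehicle for the same replicate, using vsn-normalised intensities.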

Target	NP40-soluble protein abundance (concentration: 1mM)	NP40-soluble protein abundance (concentration: 2mM)	NP40-soluble protein abundance (concentration: 4mM)	NP40-soluble protein abundance (concentration: 6mM)	NP40-soluble protein abundance (concentration: 8mM)	NP40-soluble protein abundance (concentration: 10mM)
A0A0A0MTG1|Q5ST30 and related entries (UniProt Q5ST30)	1.04 ± 0.02	1.04 ± 0.02	1.04 ± 0.015	1.01 ± 0.03	1.029 ± 0.0018	1.02 ± 0.026
A0A087WW14|Q0VDG4 and related entries (UniProt Q0VDG4)	1.06 ± 0.2	1.02 ± 0.087	1.04 ± 0.15	0.961 ± 0.097	1.01 ± 0.15	1.01 ± 0.09
A0A0A6YYG7|Q6IBW4 and related entries (UniProt Q6IBW4)	1.06 ± 0.07	1.05 ± 0.08	1.08 ± 0.054	1.12 ± 0.12	1.07 ± 0.047	1.09 ± 0.06
A0A0C4DGC9|Q8TDR2 (UniProt Q8TDR2)	1.07 ± 0.089	1.14 ± 0.028	1.11 ± 0.057	1.09 ± 0.058	1.07 ± 0.05	1.08 ± 0.073
A0A0D9SF53|A0A0D9SFB3|A0A0D9SG12|O00571 (UniProt O00571)	1.12 ± 0.035	1.16 ± 0.031	1.23 ± 0.014	1.38 ± 0.051	1.51 ± 0.059	1.53 ± 0.094
